# Data from patent US9546362B2 (priority 2011, dated 2017).
# Chains of the proteins cited; added tags and fusions are not shown. A line that says so, or that is headed by a name, gives the form on record, which may keep a tag or linker.
# UniProt A0A7J6I5X8, entry or part of it: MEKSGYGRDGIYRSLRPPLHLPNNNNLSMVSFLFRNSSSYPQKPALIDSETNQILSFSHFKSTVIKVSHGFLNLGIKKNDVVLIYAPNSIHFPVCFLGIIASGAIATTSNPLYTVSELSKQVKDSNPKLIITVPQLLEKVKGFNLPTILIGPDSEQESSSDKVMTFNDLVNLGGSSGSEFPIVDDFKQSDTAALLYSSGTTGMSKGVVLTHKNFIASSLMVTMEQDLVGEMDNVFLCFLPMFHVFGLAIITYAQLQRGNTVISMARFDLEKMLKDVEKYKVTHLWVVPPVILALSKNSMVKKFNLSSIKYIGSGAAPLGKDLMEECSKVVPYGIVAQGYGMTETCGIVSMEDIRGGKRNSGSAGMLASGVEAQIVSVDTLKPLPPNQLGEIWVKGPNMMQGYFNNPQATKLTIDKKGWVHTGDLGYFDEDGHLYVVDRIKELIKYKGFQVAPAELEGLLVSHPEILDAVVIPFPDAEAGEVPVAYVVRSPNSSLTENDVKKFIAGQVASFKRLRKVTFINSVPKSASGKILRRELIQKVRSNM
# UniProt H9A1V3, other isoform, or with tags, fused parts or gaps DEL715-715: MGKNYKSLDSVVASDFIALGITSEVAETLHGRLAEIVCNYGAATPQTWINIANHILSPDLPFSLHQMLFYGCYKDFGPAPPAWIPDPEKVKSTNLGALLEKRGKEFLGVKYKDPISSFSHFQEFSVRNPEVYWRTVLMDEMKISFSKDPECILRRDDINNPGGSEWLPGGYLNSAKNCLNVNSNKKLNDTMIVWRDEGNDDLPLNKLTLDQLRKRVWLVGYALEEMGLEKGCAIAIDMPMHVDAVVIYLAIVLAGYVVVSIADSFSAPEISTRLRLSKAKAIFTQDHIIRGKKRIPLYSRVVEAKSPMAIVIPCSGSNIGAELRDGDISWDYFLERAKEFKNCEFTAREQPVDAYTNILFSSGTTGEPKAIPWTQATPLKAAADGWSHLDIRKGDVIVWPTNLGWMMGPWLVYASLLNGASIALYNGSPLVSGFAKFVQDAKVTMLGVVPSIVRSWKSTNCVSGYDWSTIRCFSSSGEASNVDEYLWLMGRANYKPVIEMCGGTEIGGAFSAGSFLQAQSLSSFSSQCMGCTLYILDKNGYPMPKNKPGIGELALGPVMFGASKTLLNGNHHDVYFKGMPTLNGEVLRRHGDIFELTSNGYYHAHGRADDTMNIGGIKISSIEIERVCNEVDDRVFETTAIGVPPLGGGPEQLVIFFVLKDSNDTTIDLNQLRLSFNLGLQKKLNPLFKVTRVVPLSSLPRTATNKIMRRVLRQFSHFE
# At least one compound was matched to its structure with a doubt left.
# How the values were obtained:
# CsHCS2 = CsHCS2 (Cannabis sativa, UniProt A0A7J6I5X8); assay: Carboxylic acid substrate range, luciferin/luciferase measurement of unconsumed ATP; format: biochemical; conditions: CsHCS2, 500 μM carboxylic acid, 50 μM ATP, 3 h at 29° C., FIG. 3B
# Method: (§1) To test the range of carboxylic acids that CsHCS1 and CsHCS2 can activate, enzyme assays were performed with a broad range of carboxylic acids and limiting ATP. The assay conditions used were similar to Schneider K et al. (2005). A new type of peroxisomal acyl-coenzyme A synthetase from Arabidopsis thaliana has the catalytic capacity to activate biosynthetic precursors of jasmonic acid. The Journal of Biological Chemistry, 280:13962-72. […] All carboxylic acid substrates were dissolved in 2% v/v Triton™ X-100, leading to a final concentration 0.05% Triton X-100 in the assay. After reacting for 3 h at 29° C., 10 μL aliquots of the reactions were transferred to 96-well plates for a luciferin/luciferase based measurement of unconsumed ATP. The plates were analyzed with a 1420 Multilabel counter (PerkinElmer). To each well, 90 μL of a solution containing 100 mM Tris pH 7.8, 1 mM MgCl2, 2.3 μg luciferin, and 0.5 μg of luciferase was injected, and after shaking for 2 seconds the luminescence was measured for 15 seconds without a filter in place. Lower readings, compared to the reactions with no carboxylic acid substrate, indicate a higher amount of enzymatic activity and therefore substrate utilization. The results are shown in FIG. 3, wherein error bars represent the percent error of the ratio, n=3.
# CsHCS1 [1] = target: T1, CsHCS1 (Cannabis sativa, UniProt H9A1V3, DEL715-715); assay: as above; format: biochemical; parameters: His8 (pHIS8/GW vector) (N); made in house; host or cells: E. coli Rosetta 2; conditions: CsHCS1, 500 μM carboxylic acid, 50 μM ATP, 3 h at 29° C., FIG. 3A
# Method: as §1
# CsHCS1 [2] = target: T1, CsHCS1
smiles,measurement,setting,value
COc1cc(/C=C/C(=O)O)ccc1O [ferulate],utilization as substrate,CsHCS2,able to utilize
CCCCCCCCC(=O)O [nonanoate],utilization as substrate,CsHCS1 [1],utilize
CCCCCCCCCC(=O)O [decanoate],Vmax,"CsHCS1 [2]; CsHCS1, Table 5",1.8 ± 0.7 pKat
same,inhibition of CsHCS1,CsHCS1 [2]; in concentrations above 4 mM,slightly inhibited
CCCCCCC(=O)O [heptanoate],utilization as substrate,CsHCS1 [1],to a lesser extent
